Test results as given in article PMC9345961.
These are yes or no findings as the source states them, for the method shown. In cells and extracts the contact can be indirect. Some entries that bind do so weakly or less than the wild type. For some of these results: Tags and fused reporters may be left off the sequences shown. Blank lines part the entries; values can stand above or below the binder they belong to.

Key:
Flag-IKKα (human) = molecular target: T1, Flag-IKKα (human) (UniProt O15111); assay: co-IP; HEK293T cotransfected, collected 48 h post-transfection; Pierce IP lysis buffer (1% NP-40, 25 mM Tris-HCl pH 7.4, 1 mM EDTA, 150 mM NaCl, 5% glycerol); Flag-M2 beads 6 h at 4 °C; immunoblot
T1 sequence: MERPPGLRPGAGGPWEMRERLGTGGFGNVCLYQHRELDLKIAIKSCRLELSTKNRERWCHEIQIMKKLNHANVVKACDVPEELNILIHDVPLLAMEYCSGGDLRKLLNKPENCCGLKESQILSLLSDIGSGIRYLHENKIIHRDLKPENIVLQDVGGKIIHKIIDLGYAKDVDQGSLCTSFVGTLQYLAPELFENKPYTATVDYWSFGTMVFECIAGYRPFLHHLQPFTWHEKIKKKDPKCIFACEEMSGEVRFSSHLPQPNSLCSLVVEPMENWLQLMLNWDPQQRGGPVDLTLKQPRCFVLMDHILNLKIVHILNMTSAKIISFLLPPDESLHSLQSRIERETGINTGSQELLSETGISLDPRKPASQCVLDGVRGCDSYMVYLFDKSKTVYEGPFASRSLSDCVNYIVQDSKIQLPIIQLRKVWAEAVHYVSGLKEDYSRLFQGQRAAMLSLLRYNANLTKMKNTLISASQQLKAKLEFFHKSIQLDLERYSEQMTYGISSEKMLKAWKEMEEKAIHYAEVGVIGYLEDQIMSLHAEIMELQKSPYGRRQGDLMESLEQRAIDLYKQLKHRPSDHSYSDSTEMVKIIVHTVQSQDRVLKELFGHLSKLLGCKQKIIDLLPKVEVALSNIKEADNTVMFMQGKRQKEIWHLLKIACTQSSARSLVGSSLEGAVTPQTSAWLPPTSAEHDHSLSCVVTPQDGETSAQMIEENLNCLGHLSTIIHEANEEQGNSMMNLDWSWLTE

[1] = molecular target: T2, endogenous IKKα (human (endogenous in HUVECs)) (UniProt O15111); assay: co-IP; normal HUVECs, both proteins endogenous; anti-IKKα antibody (CST 2682) with protein A/G Plus-Agarose, 6 h at 4 °C; immunoblot
T2 sequence: T1 sequence

[2] = molecular target: T3, GST-fused IKKα SDD domain (human) (UniProt O15111); assay: pull-down; GST-fused truncation mutants coexpressed with the Flag-tagged partner in HEK293T; Pierce IP lysis buffer; glutathione sepharose 4B beads; immunoblot
T3 sequence: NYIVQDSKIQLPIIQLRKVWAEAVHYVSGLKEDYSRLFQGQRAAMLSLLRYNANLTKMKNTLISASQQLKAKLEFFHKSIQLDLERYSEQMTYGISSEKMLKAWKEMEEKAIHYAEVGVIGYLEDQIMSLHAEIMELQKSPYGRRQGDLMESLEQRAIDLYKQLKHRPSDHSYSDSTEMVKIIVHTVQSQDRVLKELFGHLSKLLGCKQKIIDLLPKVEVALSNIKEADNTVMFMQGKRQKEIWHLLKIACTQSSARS

GST-IKKα (human), O15111 = molecular target: T4, GST-IKKα (human), O15111; assay: co-IP; HEK293T cotransfected with GST-IKKα and Flag-IKKα (WT, K296R, S176/180A) or IKKβ; test of dimerisation (Supplementary Fig. 5k); conditions: remark: other sources report otherwise
T4 chain: T1 sequence

binding (Flag-IKKα (human)): binds
B1: HECTD3 (exogenous, no tag named) (enzyme, UniProt Q5T447 1-861)
chain: MAGPGPGAVLESPRQLLGRVRFLAEAARSLRAGRPLPAALAFVPREVLYKLYKDPAGPSRVLLPVWEAEGLGLRVGAAGPAPGTGSGPLRAARDSIELRRGACVRTTGEELCNGHGLWVKLTKEQLAEHLGDCGLQEGWLLVCRPAEGGARLVPIDTPNHLQRQQQLFGVDYRPVLRWEQVVDLTYSHRLGSRPQPAEAYAEAVQRLLYVPPTWTYECDEDLIHFLYDHLGKEDENLGSVKQYVESIDVSSYTEEFNVSCLTDSNADTYWESDGSQCQHWVRLTMKKGTIVKKLLLTVDTTDDNFMPKRVVVYGGEGDNLKKLSDVSIDETLIGDVCVLEDMTVHLPIIEIRIVECRDDGIDVRLRGVKIKSSRQRELGLNADLFQPTSLVRYPRLEGTDPEVLYRRAVLLQRFIKILDSVLHHLVPAWDHTLGTFSEIKQVKQFLLLSRQRPGLVAQCLRDSESSKPSFMPRLYINRRLAMEHRACPSRDPACKNAVFTQVYEGLKPSDKYEKPLDYRWPMRYDQWWECKFIAEGIIDQGGGFRDSLADMSEELCPSSADTPVPLPFFVRTANQGNGTGEARDMYVPNPSCRDFAKYEWIGQLMGAALRGKEFLVLALPGFVWKQLSGEEVSWSKDFPAVDSVLVKLLEVMEGMDKETFEFKFGKELTFTTVLSDQQVVELIPGGAGIVVGYGDRSRFIQLVQKARLEESKEQVAAMQAGLLKVVPQAVLDLLTWQELEKKVCGDPEVTVDALRKLTRFEDFEPSDSRVQYFWEALNNFTNEDRSRFLRFVTGRSRLPARIYIYPDKLGYETTDALPESSTCSSTLFLPHYASAKVCEEKLRYAAYNCVAIDTDMSPWEE

binding [1]: binds
B2: endogenous HECTD3 (enzyme, UniProt Q5T447 1-861)
chain: B1 chain

binding [2]: binds
B3: Flag-HECTD3 (enzyme, UniProt Q5T447 1-861)
chain: B1 chain

binding (GST-IKKα (human), O15111): binds
B4: Flag-IKKα, O15111 1-745 (enzyme)
chain: T1 sequence
